Measured values reported in the supplement of paper PMC10849652.
The list shows a part of the results.

By UniProt entry, the sequences of proteins in these tests, tags left out. Where a name states a change or a piece, a line headed by the entry shows the natural chain unless it says otherwise.
UniProt Q8N350: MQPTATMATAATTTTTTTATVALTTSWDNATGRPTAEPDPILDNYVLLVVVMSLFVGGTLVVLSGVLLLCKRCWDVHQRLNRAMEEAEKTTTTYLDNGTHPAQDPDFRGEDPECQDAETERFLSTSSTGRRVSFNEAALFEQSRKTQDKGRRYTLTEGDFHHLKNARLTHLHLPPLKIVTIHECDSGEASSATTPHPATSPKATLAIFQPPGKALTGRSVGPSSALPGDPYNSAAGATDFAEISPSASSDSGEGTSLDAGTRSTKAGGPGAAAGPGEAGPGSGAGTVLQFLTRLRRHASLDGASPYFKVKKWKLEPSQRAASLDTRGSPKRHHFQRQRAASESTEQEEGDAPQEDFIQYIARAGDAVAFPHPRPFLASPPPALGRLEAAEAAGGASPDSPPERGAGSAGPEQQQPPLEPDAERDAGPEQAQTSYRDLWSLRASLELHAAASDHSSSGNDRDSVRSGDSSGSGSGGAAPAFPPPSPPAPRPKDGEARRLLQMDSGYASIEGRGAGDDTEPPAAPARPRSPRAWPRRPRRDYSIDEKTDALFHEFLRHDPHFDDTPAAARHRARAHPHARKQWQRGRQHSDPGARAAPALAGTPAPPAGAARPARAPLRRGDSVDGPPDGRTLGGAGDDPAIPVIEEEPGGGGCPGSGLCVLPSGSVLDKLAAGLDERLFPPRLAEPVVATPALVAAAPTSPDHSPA
UniProt Q13951, whole entry, looked up: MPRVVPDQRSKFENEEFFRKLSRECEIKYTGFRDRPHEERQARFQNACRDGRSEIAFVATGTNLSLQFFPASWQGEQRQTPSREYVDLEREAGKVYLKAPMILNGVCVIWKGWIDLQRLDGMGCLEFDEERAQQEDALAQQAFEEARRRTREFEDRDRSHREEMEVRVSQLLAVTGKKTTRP
UniProt Q96F63: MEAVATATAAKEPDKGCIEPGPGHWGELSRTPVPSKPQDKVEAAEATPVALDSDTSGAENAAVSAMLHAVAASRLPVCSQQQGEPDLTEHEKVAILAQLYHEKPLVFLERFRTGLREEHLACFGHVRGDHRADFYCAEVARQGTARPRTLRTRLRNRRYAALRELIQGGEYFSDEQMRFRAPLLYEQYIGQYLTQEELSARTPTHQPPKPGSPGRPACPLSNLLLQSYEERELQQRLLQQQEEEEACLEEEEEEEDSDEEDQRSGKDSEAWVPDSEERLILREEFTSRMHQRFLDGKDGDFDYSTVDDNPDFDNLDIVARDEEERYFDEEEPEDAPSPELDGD
UniProt Q07108: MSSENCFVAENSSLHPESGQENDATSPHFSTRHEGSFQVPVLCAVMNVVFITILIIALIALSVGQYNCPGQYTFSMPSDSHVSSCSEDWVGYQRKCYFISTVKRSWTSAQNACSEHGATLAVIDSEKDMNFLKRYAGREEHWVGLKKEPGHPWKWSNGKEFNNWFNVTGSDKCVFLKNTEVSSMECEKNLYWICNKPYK
UniProt Q12834, whole entry, looked up: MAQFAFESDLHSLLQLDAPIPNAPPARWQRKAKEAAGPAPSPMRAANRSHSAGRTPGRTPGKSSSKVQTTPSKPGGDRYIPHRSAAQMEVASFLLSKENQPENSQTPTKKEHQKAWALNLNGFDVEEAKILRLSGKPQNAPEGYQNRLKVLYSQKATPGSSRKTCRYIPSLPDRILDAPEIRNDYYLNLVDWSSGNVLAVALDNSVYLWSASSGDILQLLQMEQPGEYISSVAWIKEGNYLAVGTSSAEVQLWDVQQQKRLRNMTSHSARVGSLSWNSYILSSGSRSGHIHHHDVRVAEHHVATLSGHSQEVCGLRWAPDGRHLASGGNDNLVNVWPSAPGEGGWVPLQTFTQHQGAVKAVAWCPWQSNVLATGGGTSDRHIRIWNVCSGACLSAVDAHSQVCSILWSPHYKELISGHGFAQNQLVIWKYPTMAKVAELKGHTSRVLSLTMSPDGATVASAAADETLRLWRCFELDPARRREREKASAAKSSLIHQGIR
UniProt Q6PK04: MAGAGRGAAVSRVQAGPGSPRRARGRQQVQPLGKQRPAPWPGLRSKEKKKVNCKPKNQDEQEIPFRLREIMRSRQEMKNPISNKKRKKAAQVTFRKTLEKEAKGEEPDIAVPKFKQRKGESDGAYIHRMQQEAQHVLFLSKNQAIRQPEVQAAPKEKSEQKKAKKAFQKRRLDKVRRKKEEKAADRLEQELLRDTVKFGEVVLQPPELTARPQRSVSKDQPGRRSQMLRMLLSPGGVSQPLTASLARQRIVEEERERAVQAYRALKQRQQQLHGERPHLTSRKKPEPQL
UniProt P30281: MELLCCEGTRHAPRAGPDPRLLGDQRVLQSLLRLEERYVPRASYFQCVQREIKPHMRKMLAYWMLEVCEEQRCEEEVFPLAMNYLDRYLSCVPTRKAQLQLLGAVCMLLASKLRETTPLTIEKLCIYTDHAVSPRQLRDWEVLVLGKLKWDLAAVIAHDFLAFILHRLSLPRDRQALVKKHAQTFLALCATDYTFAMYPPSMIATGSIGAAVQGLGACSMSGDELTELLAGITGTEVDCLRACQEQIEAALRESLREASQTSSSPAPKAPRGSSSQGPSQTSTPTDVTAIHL
UniProt P55210: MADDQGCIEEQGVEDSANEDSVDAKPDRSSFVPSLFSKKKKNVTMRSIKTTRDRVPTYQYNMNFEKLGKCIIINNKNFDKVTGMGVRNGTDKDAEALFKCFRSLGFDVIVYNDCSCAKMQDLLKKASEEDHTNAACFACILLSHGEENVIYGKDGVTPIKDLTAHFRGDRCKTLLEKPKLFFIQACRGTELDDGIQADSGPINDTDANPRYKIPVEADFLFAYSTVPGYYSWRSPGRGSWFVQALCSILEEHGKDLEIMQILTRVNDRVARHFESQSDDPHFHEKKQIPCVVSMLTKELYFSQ
UniProt Q9BWV3: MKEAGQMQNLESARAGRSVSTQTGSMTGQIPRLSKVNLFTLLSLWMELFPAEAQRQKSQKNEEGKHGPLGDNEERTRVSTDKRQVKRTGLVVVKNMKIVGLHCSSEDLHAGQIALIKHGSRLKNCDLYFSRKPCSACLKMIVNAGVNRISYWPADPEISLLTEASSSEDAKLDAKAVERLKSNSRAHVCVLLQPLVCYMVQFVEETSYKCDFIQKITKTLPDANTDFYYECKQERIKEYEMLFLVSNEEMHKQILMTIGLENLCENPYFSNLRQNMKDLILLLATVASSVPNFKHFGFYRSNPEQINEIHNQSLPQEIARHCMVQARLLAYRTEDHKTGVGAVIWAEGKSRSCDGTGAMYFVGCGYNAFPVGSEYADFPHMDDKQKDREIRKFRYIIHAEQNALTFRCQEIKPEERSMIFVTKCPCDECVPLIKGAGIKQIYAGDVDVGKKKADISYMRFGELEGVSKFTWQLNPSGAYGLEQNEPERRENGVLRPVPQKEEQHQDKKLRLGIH
UniProt P34810: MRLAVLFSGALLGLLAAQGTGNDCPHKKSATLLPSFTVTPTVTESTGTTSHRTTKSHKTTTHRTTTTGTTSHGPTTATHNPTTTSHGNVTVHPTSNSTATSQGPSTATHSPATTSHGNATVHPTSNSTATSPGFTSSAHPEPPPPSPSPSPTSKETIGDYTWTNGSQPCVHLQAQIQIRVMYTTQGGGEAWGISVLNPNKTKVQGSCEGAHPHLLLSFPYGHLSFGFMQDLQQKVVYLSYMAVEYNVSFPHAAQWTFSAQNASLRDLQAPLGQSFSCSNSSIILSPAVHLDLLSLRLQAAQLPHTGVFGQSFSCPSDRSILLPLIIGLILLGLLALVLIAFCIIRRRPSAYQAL
UniProt P24385, whole entry, looked up: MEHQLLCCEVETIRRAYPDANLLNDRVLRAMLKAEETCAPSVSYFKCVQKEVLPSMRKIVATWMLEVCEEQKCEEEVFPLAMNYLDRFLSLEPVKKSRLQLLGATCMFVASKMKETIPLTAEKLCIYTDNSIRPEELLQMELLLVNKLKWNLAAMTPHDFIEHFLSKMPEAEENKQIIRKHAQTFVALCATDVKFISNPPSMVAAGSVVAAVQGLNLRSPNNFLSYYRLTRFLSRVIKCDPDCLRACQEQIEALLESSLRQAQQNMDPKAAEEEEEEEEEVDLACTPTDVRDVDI
UniProt Q96S94: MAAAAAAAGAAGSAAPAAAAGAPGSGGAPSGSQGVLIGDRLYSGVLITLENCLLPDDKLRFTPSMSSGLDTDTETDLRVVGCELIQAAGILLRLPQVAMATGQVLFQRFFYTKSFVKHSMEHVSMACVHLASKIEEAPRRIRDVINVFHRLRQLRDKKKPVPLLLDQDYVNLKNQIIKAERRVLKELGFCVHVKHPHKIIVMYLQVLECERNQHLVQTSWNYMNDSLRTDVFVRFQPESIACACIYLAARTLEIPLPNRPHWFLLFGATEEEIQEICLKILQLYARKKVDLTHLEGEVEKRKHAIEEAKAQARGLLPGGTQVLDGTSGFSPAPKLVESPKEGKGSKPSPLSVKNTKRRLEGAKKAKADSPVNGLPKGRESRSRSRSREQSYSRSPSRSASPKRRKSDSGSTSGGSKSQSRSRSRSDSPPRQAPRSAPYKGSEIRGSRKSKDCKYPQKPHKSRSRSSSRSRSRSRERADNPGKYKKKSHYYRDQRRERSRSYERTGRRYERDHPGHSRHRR
UniProt O60583: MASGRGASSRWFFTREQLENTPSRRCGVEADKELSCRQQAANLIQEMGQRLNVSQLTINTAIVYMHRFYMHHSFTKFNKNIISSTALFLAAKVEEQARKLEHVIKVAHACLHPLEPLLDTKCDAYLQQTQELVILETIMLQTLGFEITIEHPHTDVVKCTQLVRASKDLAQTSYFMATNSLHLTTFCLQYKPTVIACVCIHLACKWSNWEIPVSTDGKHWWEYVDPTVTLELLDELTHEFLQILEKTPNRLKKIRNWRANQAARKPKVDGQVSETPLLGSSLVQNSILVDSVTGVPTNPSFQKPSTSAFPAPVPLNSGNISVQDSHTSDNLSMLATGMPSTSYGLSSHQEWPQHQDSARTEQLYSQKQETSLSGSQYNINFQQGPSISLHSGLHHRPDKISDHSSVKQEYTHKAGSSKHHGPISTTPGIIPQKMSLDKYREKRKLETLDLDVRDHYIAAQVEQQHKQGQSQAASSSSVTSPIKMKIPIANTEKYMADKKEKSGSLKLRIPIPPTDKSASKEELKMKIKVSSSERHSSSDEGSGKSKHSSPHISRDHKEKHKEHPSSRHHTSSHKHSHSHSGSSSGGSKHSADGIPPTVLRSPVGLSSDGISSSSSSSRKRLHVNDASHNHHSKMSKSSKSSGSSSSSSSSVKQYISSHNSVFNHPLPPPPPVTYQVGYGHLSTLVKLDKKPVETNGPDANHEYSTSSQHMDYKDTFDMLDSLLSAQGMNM
UniProt O14936: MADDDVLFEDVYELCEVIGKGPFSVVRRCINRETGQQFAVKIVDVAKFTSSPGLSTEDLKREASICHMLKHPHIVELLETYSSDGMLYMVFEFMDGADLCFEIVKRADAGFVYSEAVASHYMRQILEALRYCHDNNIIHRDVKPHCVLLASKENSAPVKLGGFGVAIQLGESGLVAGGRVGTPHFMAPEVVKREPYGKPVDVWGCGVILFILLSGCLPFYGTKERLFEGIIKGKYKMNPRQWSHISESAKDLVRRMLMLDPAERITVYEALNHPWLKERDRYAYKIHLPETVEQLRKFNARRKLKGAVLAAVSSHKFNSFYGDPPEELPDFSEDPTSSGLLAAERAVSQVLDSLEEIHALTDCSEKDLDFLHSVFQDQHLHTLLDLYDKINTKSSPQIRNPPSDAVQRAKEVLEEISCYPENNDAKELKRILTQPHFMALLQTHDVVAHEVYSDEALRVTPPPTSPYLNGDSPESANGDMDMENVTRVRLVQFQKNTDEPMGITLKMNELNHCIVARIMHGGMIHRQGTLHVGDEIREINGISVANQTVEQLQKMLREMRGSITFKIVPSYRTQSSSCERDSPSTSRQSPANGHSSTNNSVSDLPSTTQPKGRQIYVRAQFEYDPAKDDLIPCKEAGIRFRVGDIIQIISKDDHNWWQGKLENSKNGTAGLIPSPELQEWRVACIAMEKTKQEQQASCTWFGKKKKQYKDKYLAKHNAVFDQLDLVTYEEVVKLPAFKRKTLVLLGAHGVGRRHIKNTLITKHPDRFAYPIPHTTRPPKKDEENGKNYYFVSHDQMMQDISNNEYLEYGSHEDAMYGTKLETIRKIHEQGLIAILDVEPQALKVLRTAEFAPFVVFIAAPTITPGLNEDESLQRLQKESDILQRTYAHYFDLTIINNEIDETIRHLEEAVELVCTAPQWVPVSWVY
UniProt P33681, whole entry, looked up: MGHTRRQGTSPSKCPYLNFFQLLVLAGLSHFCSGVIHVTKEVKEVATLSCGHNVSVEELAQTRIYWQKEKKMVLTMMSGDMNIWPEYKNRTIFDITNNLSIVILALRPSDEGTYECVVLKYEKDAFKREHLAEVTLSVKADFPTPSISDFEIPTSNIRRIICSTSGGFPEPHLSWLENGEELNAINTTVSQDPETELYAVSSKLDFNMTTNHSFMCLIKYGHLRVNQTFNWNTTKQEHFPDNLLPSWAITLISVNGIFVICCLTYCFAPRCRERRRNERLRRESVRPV

Tests used:
Assay in all cases: log2 fold change, soluble protein after heating vs DMSO (PISA); higher = thermal stabilisation; K562 cells, 10 uM, 30 min; active = over 0.2 and 3.5 SD of the protein, either way, in both replicates (recomputed)
bafetinib = compound: Cc1ccc(NC(=O)c2ccc(CN3CC[C@H](N(C)C)C3)c(C(F)(F)F)c2)cc1Nc1nccc(-c2cncnc2)n1 [bafetinib]
How it was run: (§1)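 Soluble protein was quantified by TMTpro 16plex LC-MS/MS after channel sums were equalised. It was obtained as the supernatant after 21,000xg for 90 min from pooled aliquots of K562 cells (2×10^6 cells/mL, 10 μM compound, 30 min) heated for 3 min across 48°C-58°C and extracted in PBS with 0.5% NP-40 at 4°C. Thermal stability values are relative to control samples and come from duplicates. They are given as log2 fold changes.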

[1] = compound: Cc1cccc(CC(=O)N2CCc3c2ccc(-c2cn(C)c4ncnc(N)c24)c3F)n1
How it was run: as §1

nilotinib = compound: Cc1cn(-c2cc(NC(=O)c3ccc(C)c(Nc4nccc(-c5cccnc5)n4)c3)cc(C(F)(F)F)c2)cn1 [nilotinib]
How it was run: as §1

[2] = compound: Cc1nc(Nc2n[nH]c3c2CN(C(=O)N[C@H](CN(C)C)c2ccccc2)C3(C)C)c2sccc2n1
How it was run: as §1

dasatinib = compound: Cc1nc(Nc2ncc(C(=O)Nc3c(C)cccc3Cl)s2)cc(N2CCN(CCO)CC2)n1 [dasatinib]
How it was run: as §1

[3] = compound: Cc1ncc(-c2ccnc(Nc3ccc(S(C)(=O)=O)cc3)n2)n1C(C)C
How it was run: as §1

[4] = compound: Cn1cc(-c2ccc3c(c2)CCN3C(=O)Cc2cccc(C(F)(F)F)c2)c2c(N)ncnc21
How it was run: as §1

[5] = compound: Cn1cc(-c2ccc3nnc(C(F)(F)c4ccc5ncccc5c4)n3n2)cn1
How it was run: as §1

[6] = compound: NC(=O)Nc1cc(-c2cccc(F)c2)sc1C(=O)N[C@H]1CCCNC1
How it was run: as §1

[7] = compound: NC(=O)c1cnc(N[C@@H]2CCCC[C@@H]2N)nc1Nc1cccc(-n2nccn2)c1
How it was run: as §1

[8] = compound: NCC(=O)Nc1ccc(-n2nc(C(F)(F)F)cc2-c2ccc3c(ccc4ccccc43)c2)cc1
How it was run: as §1

entinostat = compound: Nc1ccccc1NC(=O)c1ccc(CNC(=O)OCc2cccnc2)cc1 [entinostat]
How it was run: as §1

vorinostat = compound: O=C(CCCCCCC(=O)Nc1ccccc1)NO [vorinostat]
How it was run: as §1

citarinostat = compound: O=C(CCCCCCNC(=O)c1cnc(N(c2ccccc2)c2ccccc2Cl)nc1)NO [citarinostat]
How it was run: as §1

[9] = compound: O=C1NC(=O)C(c2cnc3ccccn23)=C1c1cn2c3c(cc(F)cc13)CN(C(=O)N1CCCCC1)CC2
How it was run: as §1

[10] = compound: c1cc(OCCN2CCCCC2)cc(-c2n[nH]c3ccc(-c4nnc[nH]4)cc23)c1
How it was run: as §1

mubritinib = compound: FC(F)(F)c1ccc(/C=C/c2nc(COc3ccc(CCCCn4ccnn4)cc3)co2)cc1 [mubritinib]
How it was run: as §1

[11] = compound: NC1(c2ccc(-c3nc4ccn5c(=O)[nH]nc5c4cc3-c3ccccc3)cc2)CCC1
How it was run: as §1

silmitasertib = compound: O=C(O)c1ccc2c(c1)nc(Nc1cccc(Cl)c1)c1ccncc12 [silmitasertib]
How it was run: as §1

tipifarnib = compound: Cn1cncc1[C@@](N)(c1ccc(Cl)cc1)c1ccc2c(c1)c(-c1cccc(Cl)c1)cc(=O)n2C [tipifarnib]
How it was run: as §1

Measured: log2 fold change

CBARP (UniProt Q8N350)
inactive: bafetinib -0.21 | [1] -0.143 | nilotinib 0.132 | [2] -0.086 | dasatinib 0.15 | [3] 0.042 | [4] -0.228 | [5] 0.013 | [6] -0.109 | [7] -0.049 | [8] 0.021 | entinostat 0.144 | vorinostat -0.046 | citarinostat 0.044 | [9] -0.028 | [10] 0.047

CBFB (UniProt Q13951)
inactive: bafetinib -0.066 | nilotinib -0.02 | [2] 0.006 | dasatinib -0.13 | [3] 0.012 | [4] 0.064 | [5] 0.079 | mubritinib 0.012 | [7] -0.041 | [11] -0.063 | [8] -0.063 | citarinostat 0.169 | silmitasertib -0.045 | [10] 0.014

CCDC97 (UniProt Q96F63)
inactive: bafetinib -0.022 | nilotinib -0.074 | [2] -0.115 | dasatinib 0.021 | [3] -0.149 | [4] -0.013 | [5] -0.045 | tipifarnib -0.018 | mubritinib 0.01 | [6] 0.211 | [7] -0.109 | [11] -0.251 | [8] -0.099 | entinostat 0.076 | citarinostat 0.072 | silmitasertib 0.097 | [9] -0.042 | [10] -0.149

CD69 (UniProt Q07108)
inactive: bafetinib -0.018 | [1] 0.055 | nilotinib 0.115 | [2] 0.023 | [3] 0.157 | [4] 0.232 | tipifarnib -0.027 | mubritinib -0.014 | [6] -0.086 | [11] 0.048 | [8] 0.083 | entinostat -0.008 | vorinostat 0.062 | silmitasertib 0.046 | [9] -0.006

CDC20 (UniProt Q12834)
inactive: bafetinib 0.005 | [1] 0.015 | dasatinib -0.09 | [4] 0.059 | [5] -0.143 | tipifarnib -0.015 | mubritinib 0.066 | [6] 0.035 | [7] -0.044 | [11] -0.035 | [8] -0.089 | entinostat -0.037 | vorinostat -0.014 | silmitasertib -0.107 | [9] -0.039

CCDC137 (UniProt Q6PK04)
inactive: bafetinib 0.266 | [1] -0.11 | nilotinib -0.041 | [2] 0.076 | dasatinib 0.258 | [3] 0 | [4] -0.38 | [5] -0.129 | mubritinib -0.148 | [6] 0.123 | [7] 0.265 | [11] 0.327 | [8] 0.143 | entinostat -0.199 | vorinostat -0.085 | citarinostat -0.225 | silmitasertib 0.277 | [9] -0.008 | [10] -0.045

CCND3 (UniProt P30281)
inactive: bafetinib 0.07 | [1] -0.016 | dasatinib -0.08 | [4] 0.04 | [5] 0.092 | tipifarnib 0.026 | mubritinib 0.024 | [7] -0.204 | [11] -0.001 | [8] 0.184 | vorinostat 0.048 | citarinostat 0 | silmitasertib 0.28 | [9] 0.069 | [10] 0.183

CASP7 isoform 3 (UniProt P55210)
active: bafetinib -1.01
inactive: [1] -0.401 | nilotinib 0.145 | [2] -0.001 | dasatinib -0.239 | [3] -0.102 | vorinostat 0.044 | citarinostat -0.058 | [9] -0.048 | [10] 0.021

CDADC1 (UniProt Q9BWV3)
inactive: [8] 0.102

CD68 (UniProt P34810)
inactive: bafetinib -0.091 | mubritinib -0.003 | [6] 0.039 | [11] -0.106 | entinostat -0.33 | silmitasertib 0.07

2 entries drawn at random from those above:
CCND3 (UniProt P30281)
inactive: bafetinib 0.07 | [1] -0.016 | dasatinib -0.08 | [4] 0.04 | [5] 0.092 | tipifarnib 0.026 | mubritinib 0.024 | [7] -0.204 | [11] -0.001 | [8] 0.184 | vorinostat 0.048 | citarinostat 0 | silmitasertib 0.28 | [9] 0.069 | [10] 0.183

CASP7 isoform 3 (UniProt P55210)
active: bafetinib -1.01
inactive: [1] -0.401 | nilotinib 0.145 | [2] -0.001 | dasatinib -0.239 | [3] -0.102 | vorinostat 0.044 | citarinostat -0.058 | [9] -0.048 | [10] 0.021

(continued)

CCND1 (UniProt P24385)
inactive: [5] -0.114 | [6] -0.001 | entinostat -0.003

CCNL2 (UniProt Q96S94)
inactive: nilotinib 0 | [2] 0.002 | [3] -0.562 | [6] -0.148 | entinostat 0.189 | [9] -0.125

CDC37 (UniProt K7EKQ2)
inactive: bafetinib -0.385 | [6] 0.435 | entinostat 0.25 | citarinostat 0.111 | [9] 0.288 | [10] 0.066

CAV1 (UniProt F8WDM7)
inactive: [4] -0.041

CCNT2 (UniProt O60583)
inactive: [1] -0.117 | nilotinib 0.105 | [2] -0.161 | dasatinib -0.02 | [3] -0.462 | [5] -0.219 | tipifarnib 0.08 | mubritinib -0.209 | [6] -0.045 | [7] 0.042 | [11] 0.054 | entinostat 0.076 | vorinostat 0.223 | citarinostat 0.06 | silmitasertib -0.06 | [9] -0.032 | [10] -0.089

CASK (UniProt O14936)
inactive: dasatinib 0.096 | [7] 0.026

CD80 (UniProt P33681)
inactive: [1] -0.144 | nilotinib 0.069 | [2] -0.022 | dasatinib -0.018 | [3] 0.026 | [4] -0.054 | [5] -0.001 | tipifarnib -0.045 | mubritinib -0.054 | [6] -0.034 | [7] 0.163 | [11] 0.03 | entinostat -0.061 | vorinostat -0.125 | citarinostat 0.297 | silmitasertib -0.143 | [10] -0.049
